Where a chain is given by its changes, count along the chain named. pKd: −log10 of the molar value. For at least one entry, the source does not settle the construct or the ends of the probe. Protein sequences can lack the tags named with them.
Experiments:
Assay in all cases: intrinsic tryptophan fluorescence titration
Conditions in all cases: saturating ATP; recombinant protein; protein details: His (Ni-NTA, pET-14b); folded or branched DNA
[1] = target: T1, ADAAD H594A H814A (Bos taurus (bovine)) (UniProt Q9TTA5)
T1 sequence (looked up, limits assumed): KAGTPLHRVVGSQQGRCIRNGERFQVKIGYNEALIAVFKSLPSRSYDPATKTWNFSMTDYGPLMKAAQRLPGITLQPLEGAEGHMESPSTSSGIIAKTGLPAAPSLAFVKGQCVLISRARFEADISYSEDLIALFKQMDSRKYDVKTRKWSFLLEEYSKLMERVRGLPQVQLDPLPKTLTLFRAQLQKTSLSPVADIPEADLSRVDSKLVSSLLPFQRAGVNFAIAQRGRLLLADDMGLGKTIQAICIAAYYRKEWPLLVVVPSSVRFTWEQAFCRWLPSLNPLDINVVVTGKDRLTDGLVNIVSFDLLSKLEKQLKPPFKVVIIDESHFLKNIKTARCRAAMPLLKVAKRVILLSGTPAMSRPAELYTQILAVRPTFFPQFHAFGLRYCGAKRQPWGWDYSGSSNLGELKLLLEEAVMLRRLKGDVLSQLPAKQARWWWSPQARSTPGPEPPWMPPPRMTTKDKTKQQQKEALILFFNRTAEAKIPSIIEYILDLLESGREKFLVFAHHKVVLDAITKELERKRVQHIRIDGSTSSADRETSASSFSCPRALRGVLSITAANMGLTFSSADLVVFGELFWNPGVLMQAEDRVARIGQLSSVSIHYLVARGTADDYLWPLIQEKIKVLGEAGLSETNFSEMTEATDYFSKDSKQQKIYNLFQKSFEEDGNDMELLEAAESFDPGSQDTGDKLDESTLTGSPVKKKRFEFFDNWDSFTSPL

[2] = target: T2, ADAAD F507A/R592A F727A,R812A (Bos taurus (bovine)) (UniProt Q9TTA5)
T2 sequence (looked up, limits assumed): T1 sequence (looked up, limits assumed) with F507A, R592A, A594H

[3] = target: T3, ADAAD F507A F727A (Bos taurus (bovine)) (UniProt Q9TTA5)
T3 sequence (looked up, limits assumed): T1 sequence (looked up, limits assumed) with F507A, A594H

Sequence “GCGCAATTGCGCTCGACGATTTTTTAGCGCAATTGCGC [slDNA (stem-loop DNA)]” has a pKd [1] of 8.18, a pKd [2] of 8.03 and a pKd [3] of 7.48.
